Values quoted from earlier work, collected in patent EP0268926A2, “Safened sorptive granular pesticidal resin compositions for controlling soil borne pests and process for the preparation thereof” (priority 1986, dated 1988).
The name of at least one read-out is uncertain.

How the values were obtained:
rabbits = settings: technical pesticide
rats = settings: technical pesticide

## CCOP(=S)(OCC)SCSCC [phorate, O,O-diethyl-S-(ethylthiomethyl)phosphorodithioate]
rabbits
  acute dermal toxicities on rabbits: 3.1-6.4 mg technical/kg animal
rats
  acute dermal toxicities in rats: 2.5-6.2 mg technical/kg animal
